The supplement of paper PMC9233669
Variants at the background level are over-represented here.

Columns and labels:
biotinyl-Val-oxazolone = test: self-aminoacylation, catalytic enhancement (BVO) (fold over background); higher = more active; k-Seq, kA / k0A0; sequences stand for … in GGGAAUGGAUCCACAUCUACGAAUUC…UUCACUGCAGACUUGACGAAGCUG
Outline: (§1)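 Mutagenized RNA pools with a 21-nt variable region (0.43 μM) were reacted with each biotinyl-aminoacyl-oxazolone at 2–1250 μM for 90 minutes at room temperature, in 50 μL HEPES/NaCl/KCl/MgCl2/CaCl2 buffer containing 5% acetonitrile at pH 6.9–7.0. RNA captured on streptavidin was quantified by triplicate qPCR and by Illumina sequencing. The fraction reacted for each sequence was fit to a pseudo-first-order model with bootstrapping, and catalytic enhancement is the median kA divided by the uncatalyzed rate, taken as the low-activity peak of a bimodal Gaussian fit.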

biotinyl-Met-oxazolone = test: self-aminoacylation, catalytic enhancement (BMO) (fold over background); higher = more active; k-Seq, kA / k0A0; sequences stand for … in GGGAAUGGAUCCACAUCUACGAAUUC…UUCACUGCAGACUUGACGAAGCUG
Outline: as §1

biotinyl-Ile-oxazolone = test: self-aminoacylation, catalytic enhancement (BIO) (fold over background); higher = more active; k-Seq, kA / k0A0; sequences stand for … in GGGAAUGGAUCCACAUCUACGAAUUC…UUCACUGCAGACUUGACGAAGCUG
Outline: as §1

biotinyl-Trp-oxazolone = test: self-aminoacylation, catalytic enhancement (BWO) (fold over background); higher = more active; k-Seq, kA / k0A0; sequences stand for … in GGGAAUGGAUCCACAUCUACGAAUUC…UUCACUGCAGACUUGACGAAGCUG
Outline: as §1

biotinyl-Leu-oxazolone = test: self-aminoacylation, catalytic enhancement (BLO) (fold over background); higher = more active; k-Seq, kA / k0A0; sequences stand for … in GGGAAUGGAUCCACAUCUACGAAUUC…UUCACUGCAGACUUGACGAAGCUG
Outline: as §1

| Sequence | self-aminoacylation (biotinyl-Val-oxazolone) | self-aminoacylation (biotinyl-Met-oxazolone) | self-aminoacylation (biotinyl-Ile-oxazolone) | self-aminoacylation (biotinyl-Trp-oxazolone) | self-aminoacylation (biotinyl-Leu-oxazolone) |
| --- | --- | --- | --- | --- | --- |
| AAGUUAGCUAAAAGUCGCAAG [Fam3.1 aminoacylation ribozyme variant] | 1.43 | 1.71 | 1.85 | 1.64 |  |
| ACGUUUGCUAAUAGUCGCGAG [Fam3.1 aminoacylation ribozyme variant] |  | 1.98 |  | 1.48 |  |
| AUUCACCUAGGACAUCGGGGG [Fam2.2 aminoacylation ribozyme variant] |  |  | 1.74 | 1.06 |  |
| AUUCACCUAGGUCAACGGGCG [Fam2.2 aminoacylation ribozyme variant] | 1.97 |  |  | 1.73 |  |
| AUUCACCUAGGUCUUCGGGGG [Fam2.2 aminoacylation ribozyme variant] |  |  |  | 1.45 |  |
| AUUCACCUCGGUCAGCGGGUG [Fam2.2 aminoacylation ribozyme variant] | 3.37 | 4.51 | 3.13 |  | 5.84 |
| AUUCACCUCGGUCAUCGGGCG [Fam2.2 aminoacylation ribozyme variant] | 3.43 | 3.37 | 2.49 |  | 3.62 |
| AUUCACCUCGGUCAUCGGGUC [Fam2.2 aminoacylation ribozyme variant] |  | 1.64 | 1.62 | 1.84 |  |
| AUUCACCUGGGUCAUCGGCUG [Fam2.2 aminoacylation ribozyme variant] |  | 1.95 |  | 0.753 |  |
| AUUCCCCUGGUCUUCGAGUGA [Fam2.1 aminoacylation ribozyme variant] | 5.87 | 9.43 | 5.69 |  | 9.91 |
| AUUCCUCUAGGUCAUCGGGUG [Fam2.2 aminoacylation ribozyme variant] | 10.5 | 16.6 | 10.4 |  | 23.7 |
| AUUUACCUAGGUCAUCGAGUG [Fam2.2 aminoacylation ribozyme variant] | 5.4 | 9.76 | 6.62 |  | 12.7 |
| AUUUACCUAUGUCAUCGGGUG [Fam2.2 aminoacylation ribozyme variant] | 2.96 | 4.35 | 3.04 |  | 6.5 |
| CAACUUCAAAGAAUCGGUCUG [Fam1A.1 aminoacylation ribozyme variant] | 0.927 | 1.2 | 1.19 |  | 1.13 |
| CCAAACUUCAAGCAAUCAGUC [Fam1B.1 aminoacylation ribozyme variant] | 0.788 | 0.707 | 0.79 |  | 0.77 |
| CCACACUCCAAUCAAUCGGUC [Fam1B.1 aminoacylation ribozyme variant] | 0.814 | 0.686 | 0.996 |  | 0.754 |
| CCACACUUCAAGCAGUCGGCC [Fam1B.1 aminoacylation ribozyme variant] |  |  | 1.76 | 1.97 |  |
| CCACACUUCAAGCAUUCGGUU [Fam1B.1 aminoacylation ribozyme variant] |  |  |  | 1.15 |  |
| CCACACUUCAAGGAAUCGGUG [Fam1B.1 aminoacylation ribozyme variant] | 4.61 | 7.21 | 4.9 |  | 10.5 |
| CCACACUUCAAGUAAUCGGCC [Fam1B.1 aminoacylation ribozyme variant] | 1.68 | 1.62 | 1.59 |  | 1.83 |
| CCACACUUCAAGUAAUCGGUC [Fam1B.1 aminoacylation ribozyme variant] | 0.928 | 0.813 | 0.885 |  | 1.05 |

| Sequence | self-aminoacylation (biotinyl-Val-oxazolone) | self-aminoacylation (biotinyl-Met-oxazolone) | self-aminoacylation (biotinyl-Ile-oxazolone) | self-aminoacylation (biotinyl-Trp-oxazolone) | self-aminoacylation (biotinyl-Leu-oxazolone) |
| --- | --- | --- | --- | --- | --- |
| CCACACUUCCAGCAAUCGGUG [Fam1B.1 aminoacylation ribozyme variant] | 3.05 | 3.83 | 2.74 |  | 4.82 |
| CCACACUUUAAGCAAUAGGUC [Fam1B.1 aminoacylation ribozyme variant] | 0.683 | 0.592 | 0.619 |  | 0.578 |
| CCACAUUUCAACCAAUCGGUC [Fam1B.1 aminoacylation ribozyme variant] | 1.6 | 1.75 | 1.55 |  | 1.64 |
| CCACAUUUCAAGCAAUCGGGC [Fam1B.1 aminoacylation ribozyme variant] | 2.7 | 3.55 | 3.08 |  | 2.78 |
| CCACUCUUCAAGCACUCGGUC [Fam1B.1 aminoacylation ribozyme variant] | 0.928 | 1.15 | 1.02 |  | 1.04 |
| CCAGCCUUCAAGCAAUCGGUC [Fam1B.1 aminoacylation ribozyme variant] | 1.48 | 1.37 | 1.2 |  | 1.81 |
| CCCCACUUCAUGCAAUCGGUC [Fam1B.1 aminoacylation ribozyme variant] | 1.82 | 1.47 | 1.44 |  | 1.32 |
| CGACACUACAAGCAAUCGGUC [Fam1B.1 aminoacylation ribozyme variant] | 1 | 0.769 | 0.935 |  | 0.755 |
| CGACACUUAAAGCAAUCGGUC [Fam1B.1 aminoacylation ribozyme variant] | 0.95 | 0.956 | 0.886 |  | 0.849 |
| CGACCCUUCAAGCAAUCGGUC [Fam1B.1 aminoacylation ribozyme variant] | 1.62 | 0.97 | 1.45 |  | 1.18 |
| CGACUUCAAAAAAUCGGUCUG [Fam1A.1 aminoacylation ribozyme variant] | 1.37 | 1.81 | 1.76 |  | 1.99 |
| CGACUUCAAAUAAUCGGUCUG [Fam1A.1 aminoacylation ribozyme variant] | 0.979 | 1.14 | 1.34 |  | 1.6 |
| CUAAUUCAAACAAUCGGUCUC [Fam1A.1 aminoacylation ribozyme variant] | 0.781 | 0.687 | 0.884 |  | 0.757 |
| CUACACUUCAAGCAAUCGGUC [Fam1B.1 aminoacylation ribozyme variant] | 1.13 | 0.989 | 1 |  | 1.52 |
| CUACCUCAAACAAUCGGGCUG [Fam1A.1 aminoacylation ribozyme variant] | 1.93 |  | 1.29 | 1.74 |  |
| CUACCUCAAACAAUCGGUCUG [Fam1A.1 aminoacylation ribozyme variant] | 0.994 | 0.938 | 0.923 |  | 0.911 |
| CUACGUCAAAAAAUCGGUCUG [Fam1A.1 aminoacylation ribozyme variant] | 1.36 | 1.66 | 1.53 |  | 1.51 |
| CUACGUGAAACAAUCGGUCUG [Fam1A.1 aminoacylation ribozyme variant] | 1.56 | 1.57 | 1.31 |  | 1.66 |
| CUACUGCAAACAAUCGGUCUC [Fam1A.1 aminoacylation ribozyme variant] | 0.885 | 0.916 | 0.855 |  | 0.716 |
| CUACUUCAAAAAAUCGGGCUG [Fam1A.1 aminoacylation ribozyme variant] | 0.961 | 1.33 | 1.21 |  | 1.47 |
| CUACUUCAAACAAUCGGUCUG [Fam1A.1 aminoacylation ribozyme variant] | 1.17 | 1.21 | 1.1 |  | 1.86 |

| Sequence | self-aminoacylation (biotinyl-Val-oxazolone) | self-aminoacylation (biotinyl-Met-oxazolone) | self-aminoacylation (biotinyl-Ile-oxazolone) | self-aminoacylation (biotinyl-Trp-oxazolone) | self-aminoacylation (biotinyl-Leu-oxazolone) |
| --- | --- | --- | --- | --- | --- |
| CUACUUCAAACAUUCGGUUUG [Fam1A.1 aminoacylation ribozyme variant] | 1.2 | 1.05 | 1.17 |  | 0.962 |
| CUACUUCAAAUAAUCGGUUUG [Fam1A.1 aminoacylation ribozyme variant] | 0.736 | 0.771 | 0.888 |  | 0.874 |
| CUACUUCAACCAAUCGGUCAG [Fam1A.1 aminoacylation ribozyme variant] | 0.854 | 0.629 | 0.884 |  | 0.724 |
| CUACUUCAAGCAAUCAGUCUG [Fam1A.1 aminoacylation ribozyme variant] | 0.786 | 0.615 | 0.772 |  | 0.698 |
| CUACUUCAAGCAAUCGGUCUA [Fam1A.1 aminoacylation ribozyme variant] | 0.982 | 0.886 | 0.968 |  | 0.935 |
| CUACUUCGAACAAUCGUUCUG [Fam1A.1 aminoacylation ribozyme variant] | 0.49 | 0.453 | 0.432 |  | 0.457 |
| CUAGUUCAAACAAUCGGUUUG [Fam1A.1 aminoacylation ribozyme variant] | 0.962 | 0.86 | 0.992 |  | 1.13 |
| CUCAUUCAAACAAUCGGUCUG [Fam1A.1 aminoacylation ribozyme variant] | 0.903 | 0.966 | 0.991 |  | 1.23 |
| CUCCUUCAAACAAUCGGUCUA [Fam1A.1 aminoacylation ribozyme variant] | 1.05 | 0.924 | 0.919 |  | 1.02 |
| CUCCUUCAAAGAAUCGGUCUG [Fam1A.1 aminoacylation ribozyme variant] | 1.16 | 0.925 | 0.926 |  | 1.22 |
| CUGCCUCAAACAAUCGGUCUG [Fam1A.1 aminoacylation ribozyme variant] | 1.18 | 1.29 | 0.97 |  | 1.83 |
| CUGCUACAAACAAUCGGUCUG [Fam1A.1 aminoacylation ribozyme variant] | 0.995 | 0.841 | 0.891 |  | 0.756 |
| CUUACCGUGGUCAUCGAGUGA [Fam2.1 aminoacylation ribozyme variant] | 2.68 | 3.29 | 1.83 |  | 2.59 |
| CUUCGCCUAGGUCAUCGGGUG [Fam2.2 aminoacylation ribozyme variant] | 4.54 | 3.41 | 3.75 |  | 4.47 |
| CUUCUUCAAACAAUCGGUCCG [Fam1A.1 aminoacylation ribozyme variant] | 0.648 | 0.777 | 0.591 |  | 0.627 |
| CUUCUUCAAACAAUCGGUGUG [Fam1A.1 aminoacylation ribozyme variant] | 1.01 | 1.1 | 1.13 |  | 1.45 |
| GUACUUCAAACCAUCGGUCUG [Fam1A.1 aminoacylation ribozyme variant] | 1.18 | 1.13 | 1.22 |  | 0.918 |
| UUACUUCAAACAAUGGGUCUG [Fam1A.1 aminoacylation ribozyme variant] | 1.05 | 1.03 | 1.05 |  | 1.06 |
| UUACUUCAAAUAAUCGGUCUG [Fam1A.1 aminoacylation ribozyme variant] | 1.1 | 1.19 | 1.3 |  | 1.22 |
